Reference: article PMC8869728 (Biomedicines, 2022)

Tests used:
Type in all cases: in vivo
Settings in all cases: vitisin A or B 40 mg/kg oral; donepezil 5 mg/kg; scopolamine-treated mice
[1] = system: malondialdehyde (MDA) levels; assay: MDA levels in mouse brain tissue extracts (TBA)
Experimental: (§1) The isolated whole brain tissue was weighted, and powdered in liquid nitrogen using a mortar and pestle. The proteins in the tissue powders were suspended and extracted by 1 mL, one-fold-diluted PBS. […] The protein contents in tissue extracts were determined by the BCA^TM protein assay kit (Thermo Fisher Scientific Inc.), and BSA was used to plot the standard curve. The AChE activity in the brain extracts was determined following the previous report. […] The malondialdehyde (MDA) levels in the brain extracts was determined using acidic TBA. The 320 μL of 0.5% TBA in 10% trichloroacetic acid was premixed with 80 μL of 5-fold diluted tissue extracts, and then heated at boiling water for 20 min, and then centrifuged at 10,000 rpm, 4 °C for 30 min. […] For determining protein expressions of BDNF and its receptor, TrkB, among brain extracts of the treated mice, the immune stains were performed onto polyvinylidene difluoride (PVDF) membranes (Millipore, Bedford, MA, USA). […] The western chemiluminescent HRP substrate kit (WBKL S0050, Millipore) was used to stain the target protein expressions, which the image system [Syngene GeneGnome5 imaging system (Cambridge, UK)] was used to quantify the image levels of target protein in the immune blots.

[2] = system: tropomyosin receptor kinase B (TrkB); assay: TrkB protein expression in mouse brain tissue extracts (immune blot)
Experimental: as §1

[3] = system: brain-derived neurotrophic factor (BDNF); assay: BDNF protein expression in mouse brain tissue extracts (immune blot)
Experimental: as §1

## COc1cc2c(cc1OC)C(=O)C(CC1CCN(Cc3ccccc3)CC1)C2 (stereo not drawn) [donepezil, reference compound]
[1]
  MDA levels in brain tissue extracts compared to the control: lower increase in AChE and MDA levels
[2]
  TrkB protein expression in brain tissue extracts: recover both protein expressions of the reduced BDNF and TrkB
[3]
  BDNF protein expression in brain tissue extracts: recover both protein expressions of the reduced BDNF and TrkB
